In PubChem BioAssay AID2685 (National Center for Advancing Translational Sciences (NCATS), 2010):
Some of the results follow. These are further read-outs of the screen, such as a control signal, another cell line or another target. No call is given for them. Most of these compounds were active or inconclusive in the main read-out, so they are no random draw. The note in brackets gives the kind of curve behind each potency; many fits are weak.

Assay: qHTS Assay for Lipid Storage Modulators in Drosophila S3 Cells;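 for cell number change: cells counted by Cell Tracker Red CMTPX staining in the red channel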
Conditions: BODIPY lipid droplet fluorescence, 18-24 h; for cell number change: measured here: cell count max response, cells fed with added oleic acid
In short: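 Laser-scanning cytometry quantifies lipid droplet accumulation (500–530 nm total intensity; droplet/cell object ratio) in oleic acid-fed (400 uM added) Drosophila S3 cells treated with a concentration series. 20 uM Triacsin C defined 100% inhibition.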

[1] = measured here: lipid fluorescence (Fed channel) AC50, cells fed with added oleic acid
[2] = measured here: cell number channel AC50, cells fed with added oleic acid

| Structure (SMILES) | AC50 [1] | cell number change [%] | AC50 [2] |
| --- | --- | --- | --- |
| Cc1cc(NC(=O)CSc2nnnn2-c2cc(Cl)ccc2C)no1 | 0.58 µM [rising, single point] |  |  |
| O=C(Cn1cnnn1)Nc1cccc([N+](=O)[O-])c1 |  | 29.5 | 0.0651 µM [rising, full curve, poor fit] |
| CCc1c(C)sc(NC(=O)c2cc(-c3ccc(O)cc3)on2)c1C#N | 0.103 µM [rising, full curve] | -30.8 | 6.51 µM [falling, single point] |
| CCOC(=O)C1CCN(CC(=O)Nc2c(C(=O)OC)[nH]c3ccccc23)CC1 |  | -32.1 | 7.31 µM [falling, partial curve] |
| COc1ccc(CCNc2ncnc3c2oc2ccccc23)cc1OC | 3.66 µM [falling, partial curve] | -59.7 | 5.8 µM [falling, partial curve] |
| COc1cccc(C2CC(c3ccc(C)cc3)n3ncnc3N2)c1 (stereo unspecified) |  | 47.9 | 29.1 µM [rising, single point] |
| Cc1cc(C)cc(NC(=O)CN2CCC(C(=O)c3ccccc3)CC2)c1 | 2.06 µM [rising, full curve] | 10.3 |  |
| c1ccc2c(CN3CCSCC3)cccc2c1 | 29.1 µM [rising, single point] | 17.5 |  |
| CCOC(=O)[C@H]1[C@H]2COc3ccc(C)cc3[C@@H]2N2C(=O)CN(Cc3ccccc3)C(=O)[C@@]12C |  | -17.5 |  |
| O=C1/C(=C\c2ccccc2)SC(=S)N1CCC(=O)N1CCCCC1CCO (stereo unspecified) | 10.3 µM [falling, partial curve] | 8.02 |  |
| Cc1cc(O)c(Sc2ncn[nH]2)cc1NS(=O)(=O)c1ccc(Cl)cc1 | 7.31 µM [falling, single point] | -21.2 |  |
| O=C(CSc1nnc2c(Cl)cc(Cl)cn12)N1CCOCC1 | 6.51 µM [falling, single point] |  | 0.651 µM [falling, full curve, poor fit] |
| Cn1c(NC(=O)C[n+]2cc(-c3ccc(F)cc3)n3c2CCC3)cc(=O)n(C)c1=O |  | 4.9 |  |
| C=CCn1c(SCC(=O)Nc2cc(C)on2)nc2sc(C)c(C)c2c1=O | 2.06 µM [rising, partial curve] |  | 0.231 µM [rising, full curve, poor fit] |
| CCOC(=O)CNC(=O)OC1CCN2Cc3ccccc3N=C12 (stereo unspecified) | 6.51 µM [falling, single point] | 17.8 |  |
| O=C(N/N=C/C1C(c2ccccc2)C1(Cl)Cl)c1cccc(Br)c1 (stereo unspecified) | 29.1 µM [rising, partial curve] | 112 |  |

Record cards (already shown).
Cc1cc(NC(=O)CSc2nnnn2-c2cc(Cl)ccc2C)no1 reads AC50 [1]: 0.58 µM [rising, single point]
CCOC(=O)CNC(=O)OC1CCN2Cc3ccccc3N=C12 (stereo unspecified) reads AC50 [1]: 6.51 µM [falling, single point]; cell number change [%]: 17.8
